# The list shows a part of the results. These are further read-outs of the screen, such as a control signal, another cell line or another target. No call is given for them. The list favours compounds with an active or inconclusive main result. Potencies come from curve fits of mixed quality, noted in brackets.
# Experiment: qHTS Assay for Lipid Storage Modulators in Drosophila S3 Cells;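 for cell number change: cells counted by Cell Tracker Red CMTPX staining in the red channel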
# Details: BODIPY lipid droplet fluorescence, 18-24 h; for cell number change: measured here: cell count max response, cells fed with added oleic acid
# Procedure, shortened: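 Drosophila S3 cells loaded with oleic acid (400 uM, as added) and compounds at several concentrations; lipid droplets imaged by 488-nm laser-scanning cytometry, 500–530 nm intensity and object ratio to cell channel. Percent activity normalized to 20 uM Triacsin C.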
# [1] = measured here: lipid fluorescence (Fed channel) AC50, cells fed with added oleic acid
# [2] = measured here: cell number channel AC50, cells fed with added oleic acid
Structure (SMILES),cell number change,AC50 [1],AC50 [2]
CCOc1ccc(N2C(=O)CC(/C=C3/N(C)c4ccccc4C3(C)C)C2=O)cc1 (stereo not given),13.1%,"6.51 µM [falling, single point]",
COC(=O)C1=C(C)NC(=O)NC1c1ccccc1 (stereo not given),-6.71%,,"0.00517 µM [falling, full curve, poor fit]"
Fc1ccc(CSc2nc3ccccc3[nH]2)cc1,2.4%,,
Cc1c(NC2=C(Cl)C(=O)N(c3ccccc3)C2=O)c(=O)n(-c2ccccc2)n1C,10.9%,"20.6 µM [rising, single point]",
O=C(COC(=O)c1cccc(Cl)c1Cl)NC1CCCC1,12%,"6.51 µM [rising, full curve, poor fit]",
CCc1ccc(NC(=O)c2cnc3scc(C)n3c2=O)cc1,16.7%,,"0.517 µM [rising, full curve, poor fit]"
CCC(c1nnnn1CCc1ccccc1)N(Cc1ccco1)Cc1cc2c(C)ccc(C)c2[nH]c1=O (stereo not given),-20.9%,"11.6 µM [falling, partial curve]",
c1ccc(NCc2nnc3n2CCCCC3)cc1,-3.28%,,
COc1ccc(-c2cc3c(=O)n(CC(=O)Nc4ccc(C(C)=O)cc4)ncn3n2)cc1,-4.13%,"6.51 µM [rising, partial curve, poor fit]","3.26 µM [rising, single point]"
Cc1ccc(C2=NN(S(C)(=O)=O)C(c3ccc4nccnc4c3)C2)cc1 (stereo not given),40.2%,"29.1 µM [rising, partial curve, poor fit]","1.84 µM [rising, full curve, poor fit]"
CCn1c(SCC(=O)Nc2cc(C)on2)nnc1-c1ccc(S(=O)(=O)N2CCN(C)CC2)cc1,,"6.51 µM [rising, single point]",
O=C(Nc1cccc(S(=O)(=O)N2CCCC2)c1)c1cc(=O)[nH]c2ccccc12,10.2%,,
CCOC(=O)C(C(=O)Nc1cccc(C)c1)C1CCCCC1 (stereo not given),,,"2.31 µM [rising, single point]"
COc1ccc(OC)c(C2=NS(=O)(=O)N(C)C(C(=O)NCc3ccco3)=C2)c1,-26%,,
CC(C)CNC(=O)c1cccc(NC(=O)c2ccc3c(c2)C(=O)N(C)C3=O)c1,-30.4%,"5.8 µM [falling, single point]","8.2 µM [falling, partial curve, poor fit]"
O=C(CCCc1ccccc1)NC1CC1,-3.44%,"0.146 µM [falling, full curve]",
CC(=O)N/C(=C\c1ccc(F)cc1)C(=O)NC(C(=O)O)C(C)C (stereo not given),-21.8%,"0.58 µM [falling, full curve, poor fit]",
COc1ccc(-n2cccc2C=O)cc1OC,18.4%,"29.1 µM [rising, single point]",
Cc1ccccc1Cn1cc(NC(=O)c2nn(C)cc2Cl)cn1,34.8%,"0.146 µM [rising, full curve, poor fit]","0.00517 µM [rising, full curve, poor fit]"

Structure (SMILES),cell number change,AC50 [1],AC50 [2]
C=C(C)c1ccc(C(C)(C)NC(=O)N2CCN(C)CC2)cc1,-4.2%,"13 µM [falling, partial curve, poor fit]",
N#CCc1ccccc1C(=O)OCC(=O)N(Cc1ccccc1)Cc1ccccc1,-0.125%,"29.1 µM [falling, single point]",
CC(NC(=O)CSc1ncccn1)c1ccc(Cl)cc1Cl (stereo not given),-0.855%,"2.91 µM [falling, single point]","0.00517 µM [falling, full curve, poor fit]"
Cn1c(C23CC4CC(CC(C4)C2)C3)n[nH]c1=S,8.75%,"0.103 µM [falling, full curve]","6.51 µM [rising, partial curve, poor fit]"
Cc1ccc(S(=O)(=O)N2CCN(C(=O)CCCN3C(=O)NC4(CCCC4)C3=O)CC2)cc1C,9.03%,"0.58 µM [rising, full curve]",
COc1ccc(C(=O)COC(=O)CCS(=O)(=O)c2ccc(C)cc2)c(OC)c1,100%,"29.1 µM [falling, single point]","29.1 µM [rising, single point]"
CCOc1ncccc1C(=O)OCC(=O)c1ccc[nH]1,-8.16%,"0.13 µM [falling, full curve, poor fit]",
Cc1nnc(-c2ccc(N3CCCCCC3)c([N+](=O)[O-])c2)o1,21.6%,"1.84 µM [rising, partial curve]",
COc1ccc(CN(C(=O)c2oc3ccc(F)cc3c2C)C2CCS(=O)(=O)C2)cc1 (stereo not given),-26.7%,"29.1 µM [falling, single point]",
CC(C)CCNC(=O)c1onc(CSc2nc3ccccc3[nH]2)c1C(=O)NCCC(C)C,-2.99%,,
Cn1ncc(Cl)c1C(=O)NNC(=O)Nc1cccc2ccccc12,-18.1%,,"0.206 µM [falling, full curve, poor fit]"
O=C1CCN1C1(C(=O)NC2CCCCC2)CCCC1,-51.8%,"29.1 µM [falling, single point]","32.6 µM [falling, single point]"
CCOC(=O)C(C(=O)N1CCOCC1)C1CCCCC1 (stereo not given),-32.7%,"20.6 µM [falling, single point]","0.326 µM [falling, full curve, poor fit]"
Cc1ccc(CNC(=O)C2CCC(=O)N(CCc3ccc(Cl)cc3)C2)s1 (stereo not given),13.9%,,
CCOc1ccc(NC(=O)c2cccc(NC(=O)c3ccccc3)c2)cc1,24.9%,"23.1 µM [falling, single point]",
COCc1cc(C)nc(OCC(=O)N/N=C/c2ccc(-c3cc([N+](=O)[O-])ccc3C)o2)c1C#N,,,"0.731 µM [rising, single point]"
O=C(Nc1ccc(Cl)cc1F)C1CCN(S(=O)(=O)c2cccnc2)CC1,2.4%,,
Fc1ccc(/C=N/NC(=S)Nc2ccc(Cl)cc2)cc1F,6.41%,"6.51 µM [rising, single point]",
CCN(CC)S(=O)(=O)c1cc(C(=O)N(C)CC(=O)Nc2ccc(Cl)cc2)ccc1Cl,27.2%,"8.2 µM [rising, partial curve]",

# Some values from the entries so far.
# In AC50 [1], COc1ccc(CN(C(=O)c2oc3ccc(F)cc3c2C)C2CCS(=O)(=O)C2)cc1 (stereo not given) has 29.1 µM [falling, single point]
# In AC50 [2], COCc1cc(C)nc(OCC(=O)N/N=C/c2ccc(-c3cc([N+](=O)[O-])ccc3C)o2)c1C#N has 0.731 µM [rising, single point]

# — PubChem BioAssay AID2685 (National Center for Advancing Translational Sciences (NCATS), 2010)
